{
  "source": "patent US4898878A",
  "about": "“Antioxidant thiohistidine compounds” (priority 1987, dated 1990)",
  "key": {"ovoperoxidase [1]": {"molecular_target": "T1, ovoperoxidase (Strongylocentrotus purpuratus, UniProt O44391)", "T1 construct": "preparation not described in excerpt", "T1 sequence (O44391 1-809)": "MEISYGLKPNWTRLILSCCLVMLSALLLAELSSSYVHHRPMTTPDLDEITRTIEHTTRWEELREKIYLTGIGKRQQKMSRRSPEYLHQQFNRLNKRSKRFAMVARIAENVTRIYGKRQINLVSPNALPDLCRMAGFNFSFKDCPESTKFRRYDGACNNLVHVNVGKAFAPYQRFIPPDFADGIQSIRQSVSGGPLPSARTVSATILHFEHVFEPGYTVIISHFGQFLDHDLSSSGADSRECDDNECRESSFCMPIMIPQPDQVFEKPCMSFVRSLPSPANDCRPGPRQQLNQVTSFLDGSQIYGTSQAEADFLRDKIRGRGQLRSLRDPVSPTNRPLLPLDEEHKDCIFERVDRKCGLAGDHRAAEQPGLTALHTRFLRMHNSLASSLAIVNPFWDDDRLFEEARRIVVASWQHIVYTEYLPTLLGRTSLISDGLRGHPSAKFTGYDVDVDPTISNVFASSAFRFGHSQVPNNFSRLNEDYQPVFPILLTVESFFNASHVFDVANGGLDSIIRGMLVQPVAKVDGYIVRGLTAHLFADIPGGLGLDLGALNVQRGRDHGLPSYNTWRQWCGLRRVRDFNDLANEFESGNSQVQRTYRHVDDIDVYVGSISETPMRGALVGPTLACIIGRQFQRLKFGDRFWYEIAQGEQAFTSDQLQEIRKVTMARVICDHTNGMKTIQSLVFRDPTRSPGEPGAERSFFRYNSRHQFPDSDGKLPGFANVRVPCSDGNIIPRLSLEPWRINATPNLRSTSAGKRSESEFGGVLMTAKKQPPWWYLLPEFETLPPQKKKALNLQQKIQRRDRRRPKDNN", "test": "Peroxidase activity of ovoperoxidase", "assay_type": "biochemical, sea urchin"}, "ovoperoxidase [2]": {"molecular_target": "ovoperoxidase (Strongylocentrotus purpuratus, UniProt O44391)", "test": "CN--resistant NAD(P)H-O2 oxidoreductase (oxidase) activity of ovoperoxidase, thiol cofactor", "assay_type": "biochemical", "description": "NAD(P)H--02 oxidoreductase activity was measured by following the oxidation of reduced pyridine nucleotides spectrophotometrically at 360 nm in a Gilford 420 spectrophotometer. The off-peak wavelength of 360 nm for reduced pyridine nucleotides allowed the use of higher concentrations in a 1.0 cm pathlength cuvette. Assays were conducted in a 1 ml volume containing 50 mM NaCl, 20mM Hepes, 20 mM Tris, at pH 8.0 and 25° C., to which was added for routine assays 0.4 mM NADH, 0.5 mM MnCl2, 1 mM NaCN, 134 nM ovoperoxidase, and the appropriate amount of ovothiol preparation. One unit of activity is defined as the amount of ovothiol needed to stimulate consumption of 1.0 nanomoles NADH/min. […] Assays were initiated with NADH unless otherwise specified."}},
  "note": "For at least one compound, name, drawing or mass did not settle the structure.",
  "data": [
    {"compound": "Nc1nc[nH]n1", "note": "[aminotriazole]", "values": [
      {"measurement": "inhibition of the peroxidase activity of ovoperoxidase", "setting": "ovoperoxidase [1]", "value": "inhibits"},
      {"measurement": "inhibition of the NAD(P)H oxidase activity of ovoperoxidase", "setting": "ovoperoxidase [2]", "value": "inhibits"}
    ]}
  ]
}
